{
  "source": "patent US6444683B2",
  "about": "“17-azolyl steroids useful as androgen synthesis inhibitors” (University of Maryland at Baltimore, priority 1997, dated 2002)",
  "molecular_target": "T1, human prostate 5α-reductase (Homo sapiens, UniProt P31213)",
  "T1 construct": "The enzymatic reactions were initiated by addition of human BPH microsomes; from tissue; host or cells: human benign prostatic hyperplasia (BPH) tissue, microsomal fraction",
  "T1 sequence (P31213 1-254)": "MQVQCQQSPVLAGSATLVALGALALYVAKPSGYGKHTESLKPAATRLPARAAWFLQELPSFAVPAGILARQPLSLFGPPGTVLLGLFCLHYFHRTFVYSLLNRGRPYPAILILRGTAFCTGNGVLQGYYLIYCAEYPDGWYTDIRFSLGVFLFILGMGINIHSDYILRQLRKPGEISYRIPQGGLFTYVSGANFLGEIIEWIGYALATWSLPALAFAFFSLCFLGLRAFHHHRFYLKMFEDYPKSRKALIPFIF",
  "assay": "Inhibition of human prostate 5α-reductase in BPH microsomes (conversion of [7-3H]-testosterone to DHT)",
  "type": "biochemical",
  "settings": "from IC50 values",
  "protocol": "[…] The ethanol was evaporated to dryness under a gentle stream of air. […] The enzymatic reactions were initiated by addition of human BPH microsomes (about 180 μg of microsomal protein in 500 μl of phosphate buffer) in a total volume of 1.0 ml, and the incubations were performed for 10 min under oxygen in a shaking water bath at 37° C. The incubations were terminated by placing the sample tubes on ice and the addition of ether. Also, [^14C]-DHT (3000 dpm) and cold DHT (50 μg) were added to each tube as an internal standard and visualization marker, respectively. The steroids were extracted with ether and separated by TLC (chloroform:ether, 80:20) and visualized by exposure to iodine vapor. The extracts were analyzed for ^3H and ^14C using a liquid scintillation counter. The percentage conversion of [7-^3H]-testosterone to [^3H]-dihydrotestosterone was calculated and used to determine 5α-reductase activity.",
  "note": "Some of these results come from one statement about several compounds together. At least one compound was matched to its structure with a doubt left. Some ranges recur; such a range may be that of the whole group of compounds.",
  "data": [
    {"smiles": "C[C@]12CCC(=O)C=C1CC[C@@H]1[C@@H]2CC[C@]2(C)C(n3cncn3)=CC[C@@H]12", "note": "[Compound 7, 17-(1H, 1,2,4-triazol-1-yl)androsta-4,16-diene-3-one]", "values": [
      {"measurement": "Times less potent than finasteride as 5α-reductase inhibitor", "value": "4-6 times"}
    ]}
  ]
}
